# Results of single-concentration screens

By UniProt entry, the sequences of proteins in these tests, tags left out. Residues count along the entry.
UniProt P9WPC5, whole entry: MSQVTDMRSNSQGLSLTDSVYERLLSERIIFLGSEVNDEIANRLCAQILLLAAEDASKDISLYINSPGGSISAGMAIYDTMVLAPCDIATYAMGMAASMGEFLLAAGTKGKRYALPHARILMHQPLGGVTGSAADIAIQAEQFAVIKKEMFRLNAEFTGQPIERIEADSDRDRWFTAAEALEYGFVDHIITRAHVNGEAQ
UniProt P9WPC3, whole entry partner: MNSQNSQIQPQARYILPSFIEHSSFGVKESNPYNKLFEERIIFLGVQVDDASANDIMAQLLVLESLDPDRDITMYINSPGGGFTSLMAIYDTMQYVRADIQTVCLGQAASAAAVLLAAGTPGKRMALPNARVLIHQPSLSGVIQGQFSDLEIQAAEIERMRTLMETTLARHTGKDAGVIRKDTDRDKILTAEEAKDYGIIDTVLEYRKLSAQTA
UniProt Q8IDJ8, 1-583: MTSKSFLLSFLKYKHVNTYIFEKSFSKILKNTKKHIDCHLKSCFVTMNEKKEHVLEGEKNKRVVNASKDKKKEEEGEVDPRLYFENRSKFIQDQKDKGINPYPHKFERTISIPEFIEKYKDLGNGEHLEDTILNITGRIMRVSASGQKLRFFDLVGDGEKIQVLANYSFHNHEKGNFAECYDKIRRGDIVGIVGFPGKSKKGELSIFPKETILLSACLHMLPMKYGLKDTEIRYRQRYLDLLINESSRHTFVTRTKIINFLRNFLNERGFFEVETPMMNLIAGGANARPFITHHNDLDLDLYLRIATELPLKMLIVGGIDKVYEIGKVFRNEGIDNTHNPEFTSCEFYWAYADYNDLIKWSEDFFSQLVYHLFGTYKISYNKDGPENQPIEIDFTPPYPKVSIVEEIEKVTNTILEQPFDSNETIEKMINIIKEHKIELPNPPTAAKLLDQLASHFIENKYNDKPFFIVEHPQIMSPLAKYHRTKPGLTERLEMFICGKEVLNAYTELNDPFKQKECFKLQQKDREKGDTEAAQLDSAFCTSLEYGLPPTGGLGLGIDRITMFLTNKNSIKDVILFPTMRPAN
UniProt P9WFT3, whole entry: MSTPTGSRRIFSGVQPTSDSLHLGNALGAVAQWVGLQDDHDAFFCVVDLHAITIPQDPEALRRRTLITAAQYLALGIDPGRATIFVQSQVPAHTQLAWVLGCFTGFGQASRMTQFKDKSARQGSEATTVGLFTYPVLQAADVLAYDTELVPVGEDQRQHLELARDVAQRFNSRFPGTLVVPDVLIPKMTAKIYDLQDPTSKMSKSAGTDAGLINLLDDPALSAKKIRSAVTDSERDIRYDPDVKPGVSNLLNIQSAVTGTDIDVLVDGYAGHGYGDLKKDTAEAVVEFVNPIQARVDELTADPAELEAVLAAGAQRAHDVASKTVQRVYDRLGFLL
UniProt A4I591, 1-473: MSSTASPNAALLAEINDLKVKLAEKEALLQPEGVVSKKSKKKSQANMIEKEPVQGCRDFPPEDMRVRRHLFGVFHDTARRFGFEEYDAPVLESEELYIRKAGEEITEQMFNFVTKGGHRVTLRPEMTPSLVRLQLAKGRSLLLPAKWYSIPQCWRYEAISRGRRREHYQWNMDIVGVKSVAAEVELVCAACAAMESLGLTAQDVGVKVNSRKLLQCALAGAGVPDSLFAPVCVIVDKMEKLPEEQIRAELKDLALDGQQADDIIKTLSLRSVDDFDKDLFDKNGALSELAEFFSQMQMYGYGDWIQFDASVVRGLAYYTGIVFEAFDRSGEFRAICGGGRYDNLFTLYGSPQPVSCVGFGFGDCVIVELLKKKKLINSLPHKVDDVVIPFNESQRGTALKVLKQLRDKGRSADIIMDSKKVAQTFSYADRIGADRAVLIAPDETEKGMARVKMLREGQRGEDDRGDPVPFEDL
UniProt Q4DA54, 1-478: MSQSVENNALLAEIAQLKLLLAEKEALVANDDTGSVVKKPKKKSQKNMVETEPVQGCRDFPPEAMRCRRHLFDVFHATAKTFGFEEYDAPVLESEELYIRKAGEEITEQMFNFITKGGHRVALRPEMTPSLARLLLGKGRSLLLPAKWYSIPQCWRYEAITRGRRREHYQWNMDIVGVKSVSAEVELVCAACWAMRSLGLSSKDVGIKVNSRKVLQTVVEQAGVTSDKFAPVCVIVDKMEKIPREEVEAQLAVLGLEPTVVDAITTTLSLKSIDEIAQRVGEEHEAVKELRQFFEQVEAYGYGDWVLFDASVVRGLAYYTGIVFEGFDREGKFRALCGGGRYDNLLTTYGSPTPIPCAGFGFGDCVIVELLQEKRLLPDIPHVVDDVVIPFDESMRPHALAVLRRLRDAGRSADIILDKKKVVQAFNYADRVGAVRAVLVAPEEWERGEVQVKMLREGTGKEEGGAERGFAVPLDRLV

From ChEMBL document CHEMBL3988442, “University of Dundee, Small-Polar-MMV Screening Library” (2021).

ClpP1P2: 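ClpP1P2, Mycobacterium tuberculosis (UniProt P9WPC5 and UniProt P9WPC3). Protease assay of ClpP1P2, read by the AMC dye that it sets free. Tested at 50 µM. Higher reads as stronger inhibition, judged from the few compounds that gave an IC50. Most other retested compounds had strongly negative values. About 69,000 compounds were tested under these conditions; 0.015% (about 10) showed 50% or more at least once.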
PfKRS1: 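Lysine-tRNA ligase, Plasmodium falciparum 3D7 (UniProt Q8IDJ8). Enzyme assay of the cytosolic lysyl-tRNA synthetase in 384-well plates, read by luminescence. Tested at 30 µM. Higher reads as stronger inhibition, judged from the few compounds that gave an IC50. About 69,000 compounds were tested under these conditions; 0.071% (about 49) showed 50% or more at least once.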
MtTrpRS: 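Tryptophan-tRNA ligase, Mycobacterium tuberculosis (UniProt P9WFT3). Enzyme assay of tryptophanyl-tRNA synthetase; the read-out is not stated. Tested at 10 µM. Higher most likely means stronger inhibition; the record gives no direction and few retests gave an IC50. About 65,000 compounds were tested under these conditions; 0.098% (about 64) showed 50% or more at least once.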
LiHisRS: 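Enzyme assay of histidyl-tRNA synthetase; the read-out is not stated. Target: Histidine-tRNA ligase, Leishmania infantum (UniProt A4I591). Tested at 30 µM. Higher reads as stronger inhibition (inferred: compounds with an IC50 in retests scored well above the rest). The assay is labelled LdHisRS but filed under L. infantum. Of about 69,000 compounds tested this way, about 410 (0.6%) reached 50% or more in at least one test.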
TcHisRS: 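Histidine-tRNA ligase, Trypanosoma cruzi CL Brener (UniProt Q4DA54). Enzyme assay of histidyl-tRNA synthetase; the read-out is not stated. Compounds at 30 µM. Direction is inferred from retests: higher values go with stronger inhibition. Of about 69,000 compounds tested this way, about 31 (0.045%) reached 50% or more in at least one test.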
Leishmania in macrophages: 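Cell assay of Leishmania donovani living inside macrophages; the read-out is not stated. Concentration: 30 µM. Higher reads as stronger inhibition (inferred: compounds with an IC50 in retests scored well above the rest). Size under these conditions: about 69,000 compounds, about 1,000 of them at 50% or above in at least one test.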

Each number is a percent effect as filed.
How 0% and 100% were set is not recorded. Most values in the screen are low, and negative values occur.
Compounds were drawn at random from those tested, without regard to their results.
Two or more numbers in one place are separate tests of the same structure; such repeats can differ widely.

SMILES: CCOCCN1CCN(Cc2nnc(C3CC3)o2)CC1
ClpP1P2: -2.185%
PfKRS1: 4.605%
MtTrpRS: -4.85%
LiHisRS: 17.81%
TcHisRS: 1.97%
Leishmania in macrophages: 22.09%

SMILES: CN(Cc1cc(-c2cccnc2)no1)C(=O)[C@@H]1CSCN1C
ClpP1P2: -3.414%
PfKRS1: -0.02485%
MtTrpRS: 5.986%
LiHisRS: 7.5%
TcHisRS: 3.947%
Leishmania in macrophages: 14.7%

SMILES: CS(=O)(=O)CCOCCNc1ccc(C(F)(F)F)cc1C#N
ClpP1P2: -0.8942%
PfKRS1: 1.764%
MtTrpRS: 5.16%
LiHisRS: 17.5%
TcHisRS: 7.895%
Leishmania in macrophages: 9.174%

SMILES: COc1cccc(CCC2CCCCN2)c1 (centres undefined)
ClpP1P2: -13.36%
PfKRS1: -0.5376%
MtTrpRS: -0.8832%
LiHisRS: 2.817%
TcHisRS: 0.7692%
Leishmania in macrophages: 26.57%

SMILES: COCc1noc(CCNC(=O)c2ccc(C3CCCO3)s2)n1 (centres undefined)
ClpP1P2: 12.51%
PfKRS1: -3.918%
MtTrpRS: 6.054%
LiHisRS: 12.12%
TcHisRS: -1.087%
Leishmania in macrophages: 9.852%

SMILES: Brc1ccc(CNCc2nnc3n2CCC3)s1.Cl
Leishmania in macrophages: -0.6421%

SMILES: Cc1cccc(C(=O)N2CCCN(CCc3scnc3C)CC2)c1
ClpP1P2: -5.664%
PfKRS1: -1.169%
MtTrpRS: -4.231%
LiHisRS: 2.857%
TcHisRS: 11.69%
Leishmania in macrophages: 5.471%

SMILES: Cc1cc(C(=O)N2CCCC3(COCCN(c4ncccn4)C3)C2)[nH]n1 (centres undefined)
ClpP1P2: -2.436%
PfKRS1: -0.5259%
MtTrpRS: 1.066%
LiHisRS: 10.26%
TcHisRS: 6.135%

SMILES: COc1ccnc(N2CCN(Cc3ncc(C(C)(C)C)o3)CC2)n1
ClpP1P2: 4.866%
PfKRS1: 7.857%
MtTrpRS: 0.2337%
LiHisRS: 14.29%
TcHisRS: -2.463%
Leishmania in macrophages: 22.03%

SMILES: O=C(O)c1ccccc1-c1ccc(CN2CC(O)C2)cc1
ClpP1P2: 1.379%
PfKRS1: 5.357%
LiHisRS: 11.43%
TcHisRS: 1.13%
Leishmania in macrophages: 4.924% & 17.5%

SMILES: O=C(CSc1nncs1)N1CCN(Cc2ccc(Cl)cc2)CC1
ClpP1P2: 2.702%
PfKRS1: 5.344%
MtTrpRS: -2.205%
LiHisRS: 12.33%
TcHisRS: 7.882%
Leishmania in macrophages: 26.92%

SMILES: NC(=O)NCC(=O)N1CCCC(c2nccn2CC2CCC2)C1 (centres undefined)
ClpP1P2: -2.522%
PfKRS1: 12.6%
MtTrpRS: 2.719%
LiHisRS: 15.66%
TcHisRS: -3.659%
Leishmania in macrophages: 3.535%

SMILES: CC(C)c1cc(NC(=O)CN2CCC(C(N)=O)CC2)on1
ClpP1P2: -2.111%
PfKRS1: 0.6967%
MtTrpRS: 11.07%
LiHisRS: 15.38%
TcHisRS: 3.134%
Leishmania in macrophages: 21.05%

SMILES: CC(C)N1CCN(CCn2cnc3c(F)cccc3c2=O)CC1
ClpP1P2: 6.25%
PfKRS1: 2.397%
MtTrpRS: 2.621%
LiHisRS: 23.94%
TcHisRS: 7.182%
Leishmania in macrophages: 21.51%

SMILES: CC(C)n1nccc1NC(=O)NCCc1nc2ccc(F)cc2n1C
ClpP1P2: -10.56%
PfKRS1: 5.252%
MtTrpRS: -0.07468%
LiHisRS: 16.67%
TcHisRS: 8.235%
Leishmania in macrophages: 0.5097%

SMILES: Cc1cccc(CN2CCc3[nH]nc(C(=O)N(C)C)c3C2)n1
ClpP1P2: -0.3342%
PfKRS1: 5.392%
MtTrpRS: -5.578%
LiHisRS: 7.767%
TcHisRS: 1.942%

SMILES: Cc1ccc(C(=O)N2Cc3c(CN4CCCCC4)nn(C)c3C2)cc1F
ClpP1P2: 14.63%
PfKRS1: 3.097%
MtTrpRS: 3.434%
LiHisRS: -4.425%
TcHisRS: 5.6%

SMILES: CCc1nnc(CN2CCc3cnc(C)nc3C2)o1
ClpP1P2: -28.94%
PfKRS1: -1.027%
MtTrpRS: -2.129%
LiHisRS: 1.835%
TcHisRS: 2.624%
Leishmania in macrophages: -18.64%

SMILES: CCC[C@H]1CN(c2nc(CO)cs2)C[C@@H]1NC(=O)C1CCC1
ClpP1P2: -11.97%
PfKRS1: 2.464%
MtTrpRS: -0.6452%
LiHisRS: 3.191%
TcHisRS: 23.23%
Leishmania in macrophages: -5.848%

2 of the entries, repeated:

- COCc1noc(CCNC(=O)c2ccc(C3CCCO3)s2)n1 (centres undefined) | ClpP1P2: 12.51%; PfKRS1: -3.918%; MtTrpRS: 6.054%; LiHisRS: 12.12%; TcHisRS: -1.087%; Leishmania in macrophages: 9.852%
- CN(Cc1cc(-c2cccnc2)no1)C(=O)[C@@H]1CSCN1C | ClpP1P2: -3.414%; PfKRS1: -0.02485%; MtTrpRS: 5.986%; LiHisRS: 7.5%; TcHisRS: 3.947%; Leishmania in macrophages: 14.7%